Our source for the binding values is paper PMC10433927.

The target of assay [1] is UmSee1-TurboID-3HA (Ustilago maydis). Nature of the assay: affinity purification with mass spectrometry; anti-HA magnetic beads on native extracts of maize leaves 3 dpi with U. maydis secreting UmSee1-TurboID-3HA; control mCherry-TurboID-3HA; 4 °C, 3 h; on-bead digestion, LC-MS/MS, label-free quantification.
The target is the same in assay [2]. The description is as above. The source holds these as a separate data set.

Read-outs that look alike come from different tables or passages of the source. Results are given in words; binding and its absence hold for the method and conditions named. In cells and extracts the contact can be indirect. These calls come from enrichment with a bait or labelling near it, and not all partners need be listed.

“ZmSIP2 (Zea mays See1-interacting protein 2), endogenous (from UniProt A0A1D6G9Q0)”: the binding entry in assay [1] was “binds”.

B1: ZmSGT1 (maize suppressor of G2 allele of skp1), endogenous (protein, UniProt A0A3L6DPG1 1-361)
chain: MAASDLESKAKEAFVDDDFELAAELYTQAIDAGPATADLYADRAQAHIKLGNYTEAVADANKAIGLDPTMHKAYYRKGAACIKLEEYQTAKAALELGSSYAPGDSRFTRLLKECDECIAEESSQAPAKNVEAPVAATVEDKEDVANMDNTPPVVEPPSKPKYRHDYYNSATEVVLTIYAKGVPADSVVIDFGDQMLSVSIEVPGEEPYHFQPRLFSKIIPEKCKYQVLSTKVEIRLAKAEQVTWTTLDYSGRPKAIPQKISTPAETAPRPSYPSSKSKKDWDKLEAEVKKEEKEEKLEGDAALNKFFRDIYKDADEDMRRAMDKSFRESNGTVLSTNWKDVGSKTVEASPPDGMELKKWEI
Regarding B1, in assay [2], the binding entry is “binds”.
